Measured values as given in patent US7115589B2, “Purine derivatives” (ARIAD Pharmaceuticals, Inc., priority 1999, dated 2006).

Details: TSK-Gel HA 1000 column, sodium phosphate gradient, pH 6.8
Method: Hydroxyapatite is the principal mineral component of bone. Hydroxyapatite adsorption chromatography is used as an assay to evaluate the bone-targeting potential of both individual bone-targeting moieties (“monomers”) and of pharmaceuticals incorporating bone-targeting groups.
Method: The rentention time of a test compound is measured using a linear gradient from 10 mM sodium phosphate, 0.15 N NaCl, pH=6.8 to 500 mM sodium phosphate, 0.15 N NaCl, […] on a TSK-Gel HA 1000 high pressure liquid chromatography column (7.5 mm×75 mm). […] This K value is corrected using two reference compounds to correct from inter-column and inter-system variation to obtain a K′ value.

K′ value (corrected hydroxyapatite retention): 3.7
SMILES: NCCCC(O)(P(=O)(O)O)P(=O)(O)O [Alendronate, alendronate]
